Test [1] concerns the target T1, ERCC1 (1-297), full-length wild-type human ERCC1, Myc-tagged and Flag-tagged copies (human) (UniProt P07992).
T1 sequence: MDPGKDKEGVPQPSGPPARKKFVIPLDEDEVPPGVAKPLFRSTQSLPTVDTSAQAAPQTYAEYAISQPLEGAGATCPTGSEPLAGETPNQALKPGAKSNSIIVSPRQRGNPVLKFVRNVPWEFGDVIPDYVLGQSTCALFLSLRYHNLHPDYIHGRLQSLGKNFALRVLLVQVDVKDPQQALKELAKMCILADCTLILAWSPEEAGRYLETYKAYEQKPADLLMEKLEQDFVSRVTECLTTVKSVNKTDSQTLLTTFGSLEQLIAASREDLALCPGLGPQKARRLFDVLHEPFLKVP
Nature of the test: co-IP; A375 cells co-transfected with Myc-tagged and Flag-tagged ERCC1 constructs; 24 h later immunoprecipitation with anti-Myc antibody linked to magnetic beads; denaturing western blot with anti-Flag antibody; one co-transfected dish also treated with 25 uM cisplatin for 5 h. On the technique in general: In western blotting, separated proteins are transferred to a membrane and probed.

Test [2] deals with endogenous ERCC1 (human (endogenous in A375)) (UniProt P07992). Nature of the test: SEC + other: semi-native western blot; size exclusion chromatography of native lysates from non-transfected control and cisplatin-treated A375 cells; fractions run on denaturing and semi-native western blots for ERCC1 and XPF.

Our source for the binding values is article PMC5589656, “Disruption of DNA repair in cancer cells by ubiquitination of a destabilising dimerization domain of nucleotide excision repair protein ERCC1” (Oncotarget, 2017).

No constants are given. Whether binding was seen depends on the method and setting. For part of these data: Binding seen in cells or lysates may run through a third protein. Some results given as binding are weak or reduced against the parent protein; the word gives no strength. For part of these data: Where a sequence is shown, tags or fusion partners need not be part of it.

B1: ERCC1 (1-297), full-length wild-type human ERCC1, Myc-tagged and Flag-tagged copies (natural protein, UniProt P07992 1-297, looked up)
chain: MDPGKDKEGVPQPSGPPARKKFVIPLDEDEVPPGVAKPLFRSTQSLPTVDTSAQAAPQTYAEYAISQPLEGAGATCPTGSEPLAGETPNQALKPGAKSNSIIVSPRQRGNPVLKFVRNVPWEFGDVIPDYVLGQSTCALFLSLRYHNLHPDYIHGRLQSLGKNFALRVLLVQVDVKDPQQALKELAKMCILADCTLILAWSPEEAGRYLETYKAYEQKPADLLMEKLEQDFVSRVTECLTTVKSVNKTDSQTLLTTFGSLEQLIAASREDLALCPGLGPQKARRLFDVLHEPFLKVP
notes: ERCC1, human, full length, residues 1-297 (297 amino acid protein); Self-association was tested with two differently tagged copies; Each copy carries only one of the two tags: the Myc-tagged copy was precipitated and the Flag-tagged copy was detected; The Myc copy is in pcDNA3.1(-)/myc-His A, which as far as I recall adds a C-terminal myc-His; Construct details are in the Supplementary …
For the molecule B1, the binding result in test [1] was “binds”.

B2: endogenous ERCC1 (protein, UniProt P07992 1-297)
chain: MDPGKDKEGVPQPSGPPARKKFVIPLDEDEVPPGVAKPLFRSTQSLPTVDTSAQAAPQTYAEYAISQPLEGAGATCPTGSEPLAGETPNQALKPGAKSNSIIVSPRQRGNPVLKFVRNVPWEFGDVIPDYVLGQSTCALFLSLRYHNLHPDYIHGRLQSLGKNFALRVLLVQVDVKDPQQALKELAKMCILADCTLILAWSPEEAGRYLETYKAYEQKPADLLMEKLEQDFVSRVTECLTTVKSVNKTDSQTLLTTFGSLEQLIAASREDLALCPGLGPQKARRLFDVLHEPFLKVP
B2: the binding result in test [2] is “binds”.

B3: Flag-tagged ERCC1 (1-219) truncation (domain or fragment, UniProt P07992 1-219)
chain: MDPGKDKEGVPQPSGPPARKKFVIPLDEDEVPPGVAKPLFRSTQSLPTVDTSAQAAPQTYAEYAISQPLEGAGATCPTGSEPLAGETPNQALKPGAKSNSIIVSPRQRGNPVLKFVRNVPWEFGDVIPDYVLGQSTCALFLSLRYHNLHPDYIHGRLQSLGKNFALRVLLVQVDVKDPQQALKELAKMCILADCTLILAWSPEEAGRYLETYKAYEQKP
Turning to B3, the binding result in test [1] was “binds”.
